The source of these data is publication PMC7897482.

Sequences of proteins named here, by UniProt entry; tags and fusion partners are left off.
UniProt Q9VUV9: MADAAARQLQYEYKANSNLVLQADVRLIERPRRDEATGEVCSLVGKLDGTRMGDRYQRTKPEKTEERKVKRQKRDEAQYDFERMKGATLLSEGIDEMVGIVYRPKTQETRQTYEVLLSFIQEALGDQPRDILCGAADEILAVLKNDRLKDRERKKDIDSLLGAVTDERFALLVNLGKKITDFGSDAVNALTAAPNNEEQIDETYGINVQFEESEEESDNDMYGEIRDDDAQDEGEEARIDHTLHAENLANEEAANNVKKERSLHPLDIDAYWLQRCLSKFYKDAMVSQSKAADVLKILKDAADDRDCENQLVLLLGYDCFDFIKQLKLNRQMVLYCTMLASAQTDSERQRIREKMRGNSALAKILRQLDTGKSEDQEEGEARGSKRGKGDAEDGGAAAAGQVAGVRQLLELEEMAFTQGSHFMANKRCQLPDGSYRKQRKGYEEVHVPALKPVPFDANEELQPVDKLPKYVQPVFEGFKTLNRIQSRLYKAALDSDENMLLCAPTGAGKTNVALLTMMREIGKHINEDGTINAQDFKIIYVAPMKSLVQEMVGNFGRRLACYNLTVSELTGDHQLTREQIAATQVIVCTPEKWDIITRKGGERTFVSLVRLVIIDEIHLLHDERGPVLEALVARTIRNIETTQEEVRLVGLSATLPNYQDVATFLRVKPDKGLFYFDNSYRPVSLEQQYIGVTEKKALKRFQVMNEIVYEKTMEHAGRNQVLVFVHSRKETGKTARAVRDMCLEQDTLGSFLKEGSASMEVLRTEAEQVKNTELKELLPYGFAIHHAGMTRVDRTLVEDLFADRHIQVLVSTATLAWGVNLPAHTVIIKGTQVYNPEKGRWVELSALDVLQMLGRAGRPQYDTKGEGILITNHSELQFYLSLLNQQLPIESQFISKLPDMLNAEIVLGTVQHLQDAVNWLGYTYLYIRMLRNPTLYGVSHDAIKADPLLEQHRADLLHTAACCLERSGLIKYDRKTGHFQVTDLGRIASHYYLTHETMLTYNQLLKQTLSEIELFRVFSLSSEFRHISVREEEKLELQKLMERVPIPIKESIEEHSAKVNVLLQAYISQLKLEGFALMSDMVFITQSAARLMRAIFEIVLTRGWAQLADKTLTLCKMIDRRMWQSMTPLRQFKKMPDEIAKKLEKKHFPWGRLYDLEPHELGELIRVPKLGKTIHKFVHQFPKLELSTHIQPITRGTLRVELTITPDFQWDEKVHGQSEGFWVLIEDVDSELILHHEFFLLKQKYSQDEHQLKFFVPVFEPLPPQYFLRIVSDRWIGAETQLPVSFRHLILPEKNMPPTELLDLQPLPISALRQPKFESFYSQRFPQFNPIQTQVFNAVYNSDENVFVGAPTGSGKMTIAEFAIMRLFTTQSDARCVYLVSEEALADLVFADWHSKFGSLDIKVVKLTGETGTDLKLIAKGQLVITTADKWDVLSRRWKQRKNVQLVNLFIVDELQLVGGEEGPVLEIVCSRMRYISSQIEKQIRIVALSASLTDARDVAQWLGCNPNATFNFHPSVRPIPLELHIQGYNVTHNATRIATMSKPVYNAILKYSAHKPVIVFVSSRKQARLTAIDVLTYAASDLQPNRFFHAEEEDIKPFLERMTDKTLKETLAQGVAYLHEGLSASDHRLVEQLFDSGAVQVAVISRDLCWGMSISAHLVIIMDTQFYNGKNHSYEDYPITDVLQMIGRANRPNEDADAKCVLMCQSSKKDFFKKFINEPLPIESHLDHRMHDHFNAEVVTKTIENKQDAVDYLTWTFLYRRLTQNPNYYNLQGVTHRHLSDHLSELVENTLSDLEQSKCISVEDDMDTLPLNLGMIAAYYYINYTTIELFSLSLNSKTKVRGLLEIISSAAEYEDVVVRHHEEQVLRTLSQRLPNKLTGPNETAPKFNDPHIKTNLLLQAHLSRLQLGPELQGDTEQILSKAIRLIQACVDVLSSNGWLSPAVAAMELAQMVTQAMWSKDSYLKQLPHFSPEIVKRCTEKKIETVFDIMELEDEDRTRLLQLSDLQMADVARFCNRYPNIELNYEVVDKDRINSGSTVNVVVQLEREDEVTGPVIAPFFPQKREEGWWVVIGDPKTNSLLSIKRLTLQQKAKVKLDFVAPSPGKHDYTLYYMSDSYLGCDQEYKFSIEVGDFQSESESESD
UniProt Q9VU02: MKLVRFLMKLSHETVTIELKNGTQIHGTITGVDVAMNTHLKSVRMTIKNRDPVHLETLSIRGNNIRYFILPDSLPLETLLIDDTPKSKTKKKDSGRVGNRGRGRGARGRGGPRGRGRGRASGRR
UniProt Q9VH07: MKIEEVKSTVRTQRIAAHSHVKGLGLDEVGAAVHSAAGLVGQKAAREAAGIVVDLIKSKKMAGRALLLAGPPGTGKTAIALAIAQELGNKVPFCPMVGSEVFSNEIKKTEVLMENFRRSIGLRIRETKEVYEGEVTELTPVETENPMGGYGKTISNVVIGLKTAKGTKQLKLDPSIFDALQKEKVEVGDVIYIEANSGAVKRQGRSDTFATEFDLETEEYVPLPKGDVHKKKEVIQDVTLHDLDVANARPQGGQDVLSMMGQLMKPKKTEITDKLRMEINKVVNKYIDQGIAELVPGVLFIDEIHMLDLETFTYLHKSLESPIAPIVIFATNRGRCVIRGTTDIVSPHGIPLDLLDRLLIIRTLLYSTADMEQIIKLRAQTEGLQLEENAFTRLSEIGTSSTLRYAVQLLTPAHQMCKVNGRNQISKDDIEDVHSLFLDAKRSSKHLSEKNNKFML

No constants are given. Whether binding was seen depends on the method and setting. In cells and extracts the contact can be indirect. Here binding means that the protein was enriched with, or labelled near, the bait; the list need not be complete. Tags and fused reporters may be left off the sequences shown.

For assay [1], the target named is T1, SmD3::HA (transgenic UAS-SmD3::3xHA) (Drosophila melanogaster) (UniProt O44437).
T1 sequence: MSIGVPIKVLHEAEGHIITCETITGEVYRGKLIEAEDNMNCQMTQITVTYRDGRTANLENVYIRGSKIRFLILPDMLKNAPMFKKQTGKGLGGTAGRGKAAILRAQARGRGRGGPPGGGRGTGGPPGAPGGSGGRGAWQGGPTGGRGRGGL
Put plainly: affinity purification with mass spectrometry; SmD3::HA precipitated with an HA-specific antibody from lysates of wing imaginal discs (nub>mRFP, SmD3::HA), wild type or with ecd RNAi; LC-MS/MS; control: nub>mRFP discs.

Assay [2] addresses T2, Myc::Ecd^wt (Ecdysoneless, wild type) (Drosophila melanogaster) (UniProt Q9W032).
T2 sequence: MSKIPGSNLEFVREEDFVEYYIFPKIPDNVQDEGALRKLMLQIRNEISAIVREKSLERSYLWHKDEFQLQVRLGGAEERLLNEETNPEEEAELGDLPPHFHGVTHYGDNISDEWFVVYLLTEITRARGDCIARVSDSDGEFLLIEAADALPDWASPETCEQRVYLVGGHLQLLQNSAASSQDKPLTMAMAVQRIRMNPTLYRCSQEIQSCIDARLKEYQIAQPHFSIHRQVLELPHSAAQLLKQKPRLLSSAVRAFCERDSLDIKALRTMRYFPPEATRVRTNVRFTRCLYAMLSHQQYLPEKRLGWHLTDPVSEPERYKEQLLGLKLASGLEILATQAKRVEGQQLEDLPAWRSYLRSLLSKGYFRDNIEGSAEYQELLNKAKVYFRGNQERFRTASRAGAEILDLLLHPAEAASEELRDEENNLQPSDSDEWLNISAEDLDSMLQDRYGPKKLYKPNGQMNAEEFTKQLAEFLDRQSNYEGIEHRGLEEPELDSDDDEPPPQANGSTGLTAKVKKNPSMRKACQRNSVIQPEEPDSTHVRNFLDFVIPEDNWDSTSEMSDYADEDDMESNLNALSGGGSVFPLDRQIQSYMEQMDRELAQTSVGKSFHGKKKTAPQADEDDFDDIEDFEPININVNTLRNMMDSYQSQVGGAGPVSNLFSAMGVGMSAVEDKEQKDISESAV
Put plainly: affinity purification with mass spectrometry; Myc::Ecd^wt or Myc::Ecd^Δ34 precipitated with an anti-Myc antibody from Drosophila S2 cell lysates; LC-MS/MS, four biological replicates; control: S2 cells not expressing Myc::Ecd^wt.

Assay [3] addresses T3, Myc::Ecd^Δ34 (Drosophila melanogaster) (UniProt Q9W032).
T3 sequence: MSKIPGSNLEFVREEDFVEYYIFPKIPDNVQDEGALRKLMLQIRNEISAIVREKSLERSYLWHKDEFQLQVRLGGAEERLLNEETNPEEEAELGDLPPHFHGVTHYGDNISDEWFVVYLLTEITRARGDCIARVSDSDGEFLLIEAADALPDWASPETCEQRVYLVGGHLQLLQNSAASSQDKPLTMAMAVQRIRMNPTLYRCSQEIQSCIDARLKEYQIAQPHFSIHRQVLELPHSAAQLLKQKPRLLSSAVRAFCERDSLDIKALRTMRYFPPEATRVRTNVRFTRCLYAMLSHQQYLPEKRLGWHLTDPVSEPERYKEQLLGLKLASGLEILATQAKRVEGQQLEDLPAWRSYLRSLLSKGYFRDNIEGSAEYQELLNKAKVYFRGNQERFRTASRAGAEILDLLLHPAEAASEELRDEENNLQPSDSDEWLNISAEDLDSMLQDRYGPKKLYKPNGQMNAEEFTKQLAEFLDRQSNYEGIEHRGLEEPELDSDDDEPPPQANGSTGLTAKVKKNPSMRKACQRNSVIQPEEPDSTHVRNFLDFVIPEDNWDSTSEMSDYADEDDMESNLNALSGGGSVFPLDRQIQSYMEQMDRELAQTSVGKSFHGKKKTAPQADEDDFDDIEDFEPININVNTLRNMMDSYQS
The assay is described as above.

In the case of “I(3)72Ab (Brr2) (wing imaginal discs) (from UniProt Q9VUV9 1-2142)”, the binding entry in assay [1] is listed as “binds”. Same read-out and setting: the value for “CG10333 (DDX23) (wing imaginal discs) (from UniProt Q9VJ74)” was “binds”.

Regarding “Drosophila TSSC4 ortholog, encoded by CG6674 (S2 cells)”, the binding entry in assay [2] and in assay [3] was “binds” each time. For CG3436 (SNRNP40) (wing imaginal discs), in assay [1], the binding entry is “binds”. Consider “endogenous SmD1 (S2 cells) (from UniProt Q9VU02 1-124)”, for which, in assay [2], the binding result is “binds”. As to “endogenous Prp8 (wing imaginal discs) (from UniProt A1Z8U0 1-2396)”, the binding entry in assay [1] was “binds”. As to “endogenous Pontin (S2 cells) (from UniProt Q9VH07 1-456)”, the binding result in assay [2] and in assay [3] was “binds” throughout. Take “endogenous Prp8 (S2 cells) (from UniProt A1Z8U0 1-2396)”: the binding result in assay [2] and in assay [3] was “binds” in each case. Take “Snu114 (wing imaginal discs) (from UniProt Q9VAX8)”: the binding entry in assay [1] was “binds”.
